Test results: PubChem BioAssay (Tox21)
This list was built around the results that the source calls inconclusive (neither active nor inactive); the mix of calls is not that of the screen. Potencies of inconclusive entries are doubtful fits and often do not repeat. The source made the active and inactive calls. Calls follow the shape of the full dose curve.

By UniProt entry, the sequences of proteins in these tests, tags left out. Where a name states a change or a piece, a line headed by the entry shows the natural chain unless it says otherwise.
UniProt P19793: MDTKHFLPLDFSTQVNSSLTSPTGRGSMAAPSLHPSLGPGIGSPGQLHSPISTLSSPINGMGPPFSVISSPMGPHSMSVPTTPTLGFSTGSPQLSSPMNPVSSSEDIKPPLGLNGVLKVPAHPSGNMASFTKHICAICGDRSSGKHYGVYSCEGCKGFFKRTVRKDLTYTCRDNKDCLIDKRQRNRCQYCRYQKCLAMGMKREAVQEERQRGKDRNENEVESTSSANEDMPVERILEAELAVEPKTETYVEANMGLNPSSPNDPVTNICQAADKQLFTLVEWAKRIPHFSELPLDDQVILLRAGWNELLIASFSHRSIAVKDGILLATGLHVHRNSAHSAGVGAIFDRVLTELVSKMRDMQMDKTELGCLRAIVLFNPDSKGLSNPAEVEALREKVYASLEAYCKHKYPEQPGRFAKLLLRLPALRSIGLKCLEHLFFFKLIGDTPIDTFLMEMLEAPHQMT

Each compound was assayed against Retinoic acid receptor RXR-alpha (Homo sapiens) (UniProt P19793) (assay: qHTS assay to identify small molecule agonists of the RXR signaling pathway (AID 1159527; also: nearly all actives have a fitted effect of over 35% in size)). Details: HEK293T RXRa-UAS-bla, beta-lactamase ratio, 16 h; activation: at 76.8 µM (top of the series) unless noted.
Procedure, shortened: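 Compounds in DMSO were added to RXR-alpha-UAS-bla HEK 293T cells kept in 2% charcoal-stripped serum, and incubated 16 hr at 37 C with 5% CO2. Reporter signal came from a 2 hr B/G FRET substrate step.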
% is scaled to controls: 0 for no effect and ±100 for the full control effect; potency is read from the fitted curve at half-maximal effect.

Structure (SMILES) | Potency | activation
CCc1cc(C2=C(C(=O)O)N(c3ccccc3C(F)(F)F)S(=O)(=O)c3ccccc32)cc2c1OCO2 | inconclusive: 54.3 µM [rising, partial curve] | –
OC(CCCN1CCCCC1)(c1ccccc1)c1ccccc1 | – | inactive: -13.7% [at 35.3 µM]
CC(C)c1ccccc1N | – | inactive: 6.38%
CCNC(=S)NCC | inactive | –
Nc1nc(N)c(-c2ccccc2)s1 | – | inconclusive: 2.73% [at 35.3 µM]
CCCCOCC | – | inactive: 4.3%
Cn1c(NCCN(CCO)CCCc2ccc([N+](=O)[O-])cc2)cc(=O)n(C)c1=O | – | inconclusive: 8.53% [at 35.3 µM]
O=C1OC(=O)c2ccccc21 | – | inactive: -5.41%
O=C(O)c1cn(-c2ccc(F)cc2)c2cc(N3CCNCC3)c(F)cc2c1=O | inactive | –
C#CC(O)CCC (stereo unspecified) | – | inactive: 0.628%
C/C=C1/CC2C=CC1C2 (stereo unspecified) | inconclusive: 43.6 µM | –
C(/C=C/C=C/Nc1ccccc1)=Nc1ccccc1 | – | inconclusive: -21.4%
CCOc1cccc(N)c1 | – | inactive: -11.8%
O=Cc1ccccc1S(=O)(=O)O | active: 9.77 µM | –
CCC(C)O (stereo unspecified) | – | inactive: -0.595%
CC(C)(C)C(=O)CCc1ccc(Cl)cc1 | – | inactive: 0.158%
FC(F)(Cl)C(F)(Cl)Cl | inconclusive: 38.7 µM [activator, partial curve, poor fit] | –
O=C(OC1C[C@H]2CC[C@@H](C1)[N+]21CCCC1)C(O)(c1ccccc1)c1ccccc1 (stereo partly specified) | – | inactive: -0.317% [at 35.3 µM]
CC(=O)C(C)C | inactive | –
CS(C)=O | – | inconclusive: -36.4%
NC(N)=N/N=C/c1c(Cl)cccc1Cl | inconclusive: 13.4 µM [activator, partial curve, poor fit] | –

Reformatted: 2 of the compounds above
Structure (SMILES),Potency,activation
C#CC(O)CCC (stereo unspecified),–,inactive: 0.628%
C/C=C1/CC2C=CC1C2 (stereo unspecified),inconclusive: 43.6 µM,–
